Laboratory results from article PMC8686075.
No constants are given. Whether binding was seen depends on the method and setting. Binding seen in cells or lysates may run through a third protein. Some results given as binding are weak or reduced against the parent protein; the word gives no strength. Sequences can lack the tags named with a protein.

What was measured:
FLAG-Rif1 C552 (mouse) = molecular target: T1, FLAG-Rif1 C552 (mouse) (UniProt Q6PR54); assay: co-IP; lysates of transfected cells (0.5 mg protein, buffer A diluted to 150 mM NaCl, 1% NP-40) precipitated with anti-FLAG M2 agarose; washed 4 times with buffer A, 150 mM NaCl; immunoblot for endogenous Rif1
T1 sequence: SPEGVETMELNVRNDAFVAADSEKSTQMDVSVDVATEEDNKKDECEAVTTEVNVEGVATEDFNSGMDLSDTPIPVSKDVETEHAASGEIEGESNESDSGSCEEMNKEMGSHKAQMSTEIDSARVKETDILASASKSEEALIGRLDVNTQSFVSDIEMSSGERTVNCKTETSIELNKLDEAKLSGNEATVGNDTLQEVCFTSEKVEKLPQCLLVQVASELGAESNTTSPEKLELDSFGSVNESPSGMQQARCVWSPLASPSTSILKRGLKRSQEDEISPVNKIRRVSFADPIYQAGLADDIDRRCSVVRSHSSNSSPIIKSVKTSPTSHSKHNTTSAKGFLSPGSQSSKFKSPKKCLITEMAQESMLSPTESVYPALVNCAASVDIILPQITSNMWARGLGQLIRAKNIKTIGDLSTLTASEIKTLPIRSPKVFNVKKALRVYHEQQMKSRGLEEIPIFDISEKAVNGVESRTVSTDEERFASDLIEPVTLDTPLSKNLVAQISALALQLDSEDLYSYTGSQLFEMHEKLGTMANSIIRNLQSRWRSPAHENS

[1] = molecular target: endogenous Rif1 (mouse (endogenous in mouse ES cells)) (UniProt Q6PR54); assay: co-IP; lysates of transfected cells (0.5 mg protein, buffer A diluted to 150 mM NaCl, 1% NP-40) precipitated with 1 ug anti-Rif1N antibody and protein A/G Sepharose (endogenous Rif1); washed 4 times with buffer A, 150 mM NaCl; immunoblot for FLAG-tagged Rif1

| Molecule | binding (FLAG-Rif1 C552 (mouse)) | binding [1] |
| --- | --- | --- |
| endogenous Rif1 (from UniProt Q6PR54 1-2419) | binds | – |
| FLAG-Rif1 C552 (domain or fragment, UniProt Q6PR54 1868-2419) SPEGVETMELNVRNDAFVAADSEKSTQMDVSVDVATEEDNKKDECEAVTTEVNVEGVATEDFNSGMDLSDTPIPVSKDVETEHAASGEIEGESNESDSGSCEEMNKEMGSHKAQMSTEIDSARVKETDILASASKSEEALIGRLDVNTQSFVSDIEMSSGERTVNCKTETSIELNKLDEAKLSGNEATVGNDTLQEVCFTSEKVEKLPQCLLVQVASELGAESNTTSPEKLELDSFGSVNESPSGMQQARCVWSPLASPSTSILKRGLKRSQEDEISPVNKIRRVSFADPIYQAGLADDIDRRCSVVRSHSSNSSPIIKSVKTSPTSHSKHNTTSAKGFLSPGSQSSKFKSPKKCLITEMAQESMLSPTESVYPALVNCAASVDIILPQITSNMWARGLGQLIRAKNIKTIGDLSTLTASEIKTLPIRSPKVFNVKKALRVYHEQQMKSRGLEEIPIFDISEKAVNGVESRTVSTDEERFASDLIEPVTLDTPLSKNLVAQISALALQLDSEDLYSYTGSQLFEMHEKLGTMANSIIRNLQSRWRSPAHENS | – | binds |
